In the supplement of paper PMC5407854, “Inhibitor of ppGalNAc-T3-mediated O-glycosylation blocks cancer cell invasiveness and lowers FGF23 levels” (eLife, 2017):
± gives the standard deviation of the averaged measurements. In all, about 1,700 compounds were measured (“T3 sensor activation Q score (MG/GFP ratio z-score vs DMSO controls)”: median about 0.25, highest 2% from about 1.9 on). The list shows a part of the results.

Each compound was assayed on ppGalNAc-T3 sensor (assay: T3 sensor activation Q score (MG/GFP ratio z-score vs DMSO controls) (SD units); higher = more sensor activation (inhibition of ppGalNAc-T3 glycosylation)). Conditions: HEK293 sensor cells; 10 µM; 6 h.
Procedure: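 Cells were treated with compound at 10 uM for 6 h, then MG/GFP ratio was read by flow cytometry (10,000 cells per well, duplicate wells). Q = (R - R_neg)/SD_neg relative to DMSO vehicle controls; the signal rises when the glycosyltransferase is inhibited.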

| Structure (SMILES) | T3 sensor activation Q score |
| --- | --- |
| Cc1ccc(NCCN(C)C)c2c(=O)c3cc(O)ccc3sc12 | -1.3 |
| NC(=O)Oc1cccc(OC(N)=O)c1 | 0.65 |
| CCCOc1ccc(-c2nc(-c3ccc([N+](=O)[O-])cc3)cs2)cc1 | -0.95 |
| Cc1[nH]c(=S)[nH]c(=O)c1CCC1OCCO1 | -0.45 |
| CCN(CC)CCN1C(=O)c2cccc3cc(N)cc(c23)C1=O | 0.95 |
| Cc1ccc(N=Nc2c(O)c3ccccc3[nH]c2=O)c(S(=O)(=O)N(C)C)c1 | 0.95 |
| Nc1c(Cl)cc(S(N)(=O)=O)cc1S(N)(=O)=O | 1.1 |
| O=C(c1ccc(O)cc1)c1ccc(C(=O)c2ccc(O)cc2)cc1 | 1.25 |
| Cc1cc(NC(=O)c2ccccc2)c(Cl)cc1N | -1.55 |
| O=c1[nH]cc(I)cc1I | -0.05 |
| Cc1cccc2c1c1ccc3c(c1n2C)C(=O)C=CC3=O | -0.6 |
| COc1ccccc1NC(=O)Oc1cccc(OC(=O)c2ccccc2)c1 | 0.35 |
| COc1c(NC(C)=O)c2ccccc2c2ccccc12 | -0.2 |
| O=C(COc1ccc([N+](=O)[O-])cc1Cl)N1CCOCC1 | 1.85 |
| C#CC(c1ccccc1)(c1ccccc1)n1ccnc1 | 0.35 |
| c1ccc(-c2nn(-c3ccccc3)[n+](-c3ccccc3)n2)cc1 | -0.1 |
| Nc1ccc(C(=O)Nc2cccc(N)c2)cc1 | -1.35 |
| COc1cc(Cl)c(CC(=O)c2c[nH]c3ccccc23)cc1OC | 1.05 |
| Cc1ccn2c(C(C)O)nnc2c1 (stereo unspecified) | 0.05 |
| Clc1ccc(-c2nc(-c3cc4cc(Cl)ccc4o3)cs2)cc1 | 1.1 |
| Nc1ncn([C@@H]2O[C@H](CO)[C@@H](O)[C@H]2O)c(=O)n1 | 0.75 |
| COc1cccc(NC(=S)Nc2ccc(O)cc2)c1 | -0.55 |
| CCCCC[C@H](O)/C=C/[C@@H]1[C@@H](C/C=C\CCCC(=O)O)[C@@H](O)C[C@H]1O | -0.2 |
| O=C1CCC(c2ccccc2)(c2ccccc2)CC1 | 0.25 |
| O=c1cc(N=Nc2ccc(Cl)cc2)[nH]c(=O)[nH]1 | -0.5 |

Four of the compounds above, field by field:
c1ccc(-c2nn(-c3ccccc3)[n+](-c3ccccc3)n2)cc1
  T3 sensor activation Q score: -0.1
Nc1ccc(C(=O)Nc2cccc(N)c2)cc1
  T3 sensor activation Q score: -1.35
COc1cc(Cl)c(CC(=O)c2c[nH]c3ccccc23)cc1OC
  T3 sensor activation Q score: 1.05
Cc1ccn2c(C(C)O)nnc2c1 (stereo unspecified)
  T3 sensor activation Q score: 0.05

Later entries:

| Structure (SMILES) | T3 sensor activation Q score |
| --- | --- |
| CC1=NN(c2ccccc2)C(=O)C1N=Nc1ccc(S(N)(=O)=O)cc1 (stereo unspecified) | 0.65 |
| CC1CC(C)(C)C2=NCCN21 (stereo unspecified) | 1.1 |
| CCC(C)NC(=O)CC(C)C (stereo unspecified) | 0.25 |
| O=[N+]([O-])c1c(N2CCN(CCO)CC2)nc2ccccn12 | 0.5 |
| c1ccc(-n2ncc3cccnc32)cc1 | -0.05 |
| Nc1ccc(C(=O)Nc2ccc(Nc3ccncc3)cc2)cc1 | 0.85 |
| O=C(O)CCC(=O)c1ccc2ccc3cccc4ccc1c2c34 | 1.75 |
| O=C1C(=Nc2cccc(Cl)c2)CC(c2ccc(Cl)cc2)N1c1cccc(Cl)c1 (stereo unspecified) | -1.1 |
| Cc1ccc(C(=O)Nc2ccc(CN3CCN(C)CC3)c(C(F)(F)F)c2)cc1C#Cc1cnc2cccnn12 | 1.9 |
| Cc1ccnc(NC(c2ccccc2)c2ccc3cccnc3c2O)c1 (stereo unspecified) | -0.55 |
| CCCN(CCC)CC(=O)N1CC(=O)Nc2ccccc21 | 0.55 |
| O=c1[nH]c(=S)c2ncn(-c3ccccc3)c2[nH]1 | 0.35 |
| COc1ccc(-c2cc3ccccc3[nH]2)cc1 | 0.7 |
| C[C@@H]1O[C@@H](Oc2c(-c3cc(O)c(O)c(O)c3)oc3cc(O)cc(O)c3c2=O)[C@H](O)[C@H](O)[C@H]1O | 0.05 |
| Nc1ccnn1-c1ccccc1 | -0.55 |
| c1ccc2[nH]c(-c3ccncc3)nc2c1 | 0.2 |
| Cc1cc(C)n(C(N)=NC(=O)c2ccc([N+](=O)[O-])cc2)n1 | 1.35 |
| O=c1ccc(Cl)n[nH]1 | 1.35 |
| O=C(Nc1cccnc1)c1cccc([N+](=O)[O-])c1 | 1.55 |
| O=C(O)/C=C\C(=O)Nc1ccc(-c2ccccc2)cc1 | 0.45 |
| N#CCc1cnc2ccccc2n1 | -1.1 |
| O=C(c1ccc(Cl)nc1)c1cccs1 | 0.3 |
| S=c1nc[nH]c2c1ncn2C1CCCC1 | 0.3 |
| Cc1ccc([N+](=O)[O-])cc1NC(=O)Nc1ccc(S(N)(=O)=O)cc1 | 0.8 |
| Cc1ccc(-c2nc(-c3nccc4ccccc34)oc2-c2ccccc2)cc1 | 1.05 |

| Structure (SMILES) | T3 sensor activation Q score |
| --- | --- |
| COc1cc2nccc(Oc3ccc(NC(=O)C4(C(=O)Nc5ccc(F)cc5)CC4)cc3)c2cc1OC | 0.1 |
| COc1cc2c(c(OC)c1O)C(=O)CO2 | 1.55 |
| COc1cccc(OCC(O)CN2CCN(c3ccccc3)CC2)c1 (stereo unspecified) | -0.05 |
| Cc1ccc(C#CC(C)(O)C(C)(C)C)cn1 (stereo unspecified) | 0.75 |
| O=C(Nc1nc2ccccc2s1)Nc1ccc([N+](=O)[O-])cc1Cl | -0.2 |
| CCOC(=O)Cc1cc(=O)[nH]n(-c2ccccc2)c1=O | 0.35 |
| OCC(O)C1OCOC(C(O)CO)C1O (stereo unspecified) | -1 |
| CO[C@@]12[C@H](COC(N)=O)C3=C(C(=O)C(C)=C(N)C3=O)N1C[C@@H]1N[C@@H]12 | 0.575 ± 0.32 |
| COc1ccc(C2OC3=C(Nc4cc(C)c(C)cc4N3)C2=O)cc1 (stereo unspecified) | 1 |
| N#C/C(=C\c1ccc[nH]1)C(=O)c1ccccc1 | -0.55 |
| Oc1ccccc1-n1c(-c2ccccc2)ccc1-c1ccccc1 | 0.5 |
| C=CCOc1ccnc(-c2ccccc2)n1 | 1.65 |
| c1ccc(-c2nnc(-c3ccccn3)s2)nc1 | 0.75 |
| COc1ccc2nc3cc(Cl)ccc3c(C#N)c2c1 | 0.5 |
| Nc1n[nH]c(-c2ccccc2)n1 | 0.5 |
| Clc1nc(Oc2ccccc2)nc(-c2cn(-c3ccccc3)c3ccccc23)n1 | 1.1 |
| Cc1ccc(N=Nc2c(O)ccc3n[nH]nc23)cc1 | -1.6 |
| ONC(=NCc1ccccc1)c1ccccc1 | 0.2 |
| COc1ccc(CN2CCOC2=O)cc1OC | -0.55 |
| Cc1ccc(C(C)C)cc1NC(=O)Nc1ccc([N+](=O)[O-])cc1 | -1.1 |
| Cc1cc(=O)oc2cc(OS(C)(=O)=O)ccc12 | 1.35 |
| CC1CC(O)C2C3(C)CCCC2(COC3=O)C12CCC1(CCOC1=O)O2 (stereo unspecified) | 1.25 |
| CC(=O)OCc1cc(-c2nc3ccccc3[nH]c2=O)nn1-c1ccc(Cl)cc1 | 0.6 |
| C(=C\c1ccccn1)/c1ccccn1 | 0.65 |
| N#CC1C=Cc2c(ccc3ccccc23)N1C(=O)c1ccccc1 (stereo unspecified) | 2.65 |

| Structure (SMILES) | T3 sensor activation Q score |
| --- | --- |
| c1ccc(-c2ccc(-c3nccc4ccccc34)[nH]2)cc1 | 0 |
| Clc1ccc(-c2c(C3=NCCCN3)nnn2-c2ccc(Cl)cc2)cc1 | 0.3 |
| Nc1nc(N)c2cc(Sc3ccc4ccccc4c3)ccc2n1 | 1.15 |
| CCOC(=O)c1c(NC(=S)NC)sc2c1CCCC2 | 0.85 |
| O=c1oc(-c2ccccc2)c(-c2ccccc2)c2ccccc12 | 0.8 |
| c1ccc(-c2ccc3c(c2)NCCN3)cc1 | -1.45 |
| O=C(NC1CCCCC1)c1cc2ccccc2cc1O | -0.1 |
| O=C(Oc1ccccc1)c1cccc2cccc(C(=O)Oc3ccccc3)c12 | 1.1 |
| CSc1cccc(NC(=O)Nc2nc3c(C)cccc3s2)c1 | -1 |
| COC1=C[C@@H](C)[C@@H]2C[C@H]3OC(O)C[C@H]4C(C)=C(OC)C(=O)[C@H]([C@@]2(C)C1=O)[C@@]34C (stereo partly specified) | 0.4 |
| CCc1noc2cc(-c3ccccc3)n(C)c(=O)c12 | 0.35 |
| CCN(CC)CCN1c2ccccc2Sc2ccc3ccccc3c21 | -1.05 |
| Cc1cccc(N2CCN(CC(O)COc3ccc(Cl)cc3)CC2)c1 (stereo unspecified) | 0 |
| c1ccc(-c2nnc3nc(N4CCCCC4)nc(N4CCCCC4)n23)cc1 | 1.3 |
| O=C(Nc1cccc(-c2nc3ccccc3[nH]2)c1)c1ccc(C(=O)Nc2cccc(-c3nc4ccccc4[nH]3)c2)cc1 | 0.65 |
| CCOC(=O)Cc1cc(=O)c2cc(C)ccc2[nH]1 | 0.7 |
| O=C1C=CC(=O)N1c1ccc(I)cc1Cl | 0.15 |
| Cc1cccc(C(O)C(O)c2cccc(C)n2)n1 (stereo unspecified) | 0.15 |
| CC(=NO)C1CC(CC(=O)O)C1(C)C (stereo unspecified) | -0.55 |
| Nc1nc(N)c(C=Nc2ccc(Br)cc2)c(Nc2ccc(Br)cc2)n1 | 0.25 |
| O=C(/C=C/c1ccc(Cl)s1)c1ccc(Cl)s1 | 1.1 |
| COC(=O)C1(F)C(=O)NC(=O)NC1OC (stereo unspecified) | 0.6 |
| Cc1ccc(N=Nc2c(N)nn(-c3ccccc3)c2N)cc1 | 1.05 |
| CCCNC(=O)c1ccccc1C(=O)NC1(C(=O)NCCC)CCCC1 | -0.35 |
| NC1=NC(c2ccccc2)N=C(Nc2ccccc2)N1 (stereo unspecified) | 1.2 |

| Structure (SMILES) | T3 sensor activation Q score |
| --- | --- |
| Nc1nc(N)c(N=Nc2ccc(C(=O)O)cc2)c(N)n1 | 0.55 |
| COc1cc([C@@H]2c3cc4c(cc3[C@@H](O[C@@H]3O[C@@H]5CO[C@@H](C)O[C@H]5[C@H](O)[C@H]3O)[C@H]3COC(=O)[C@H]23)OCO4)cc(OC)c1O | 0.2 |
| CCOc1ccc(S(=O)(=O)c2ccc(C)cc2)c2c1no[n+]2[O-] | -0.75 |
| c1ccc2c(c1)cnc1ccccc12 | 1.05 |
| CC[C@@]1(O)C(=O)OCc2c1cc1n(c2=O)Cc2cc3c(N)cccc3nc2-1 | -1.05 |
| O=c1nc(Nc2cccc(Cl)c2)oc2cc(Cl)oc(=O)c12 | -0.4 |
| O=C(O)c1ccccc1-c1ccccc1C(=O)Nc1ccc2oc(=O)c3ccccc3c2c1 | -0.25 |
| CC1CN(CCN2CC(C)N(C=O)CC2C)C(C)CN1C=O (stereo unspecified) | 1.3 |
| CN(C)c1nc(N(C)C)nc(N(C)C)n1 | 0.5 |
| COC(=O)C1(C(=O)OC)C2C(=O)C3C(C21)C3(C(=O)OC(C)(C)C)C(=O)OC(C)(C)C (stereo unspecified) | 0.65 |
| S=c1[nH]c2ccccc2n2cccc12 | 0.6 |
| CCOC(=O)Cn1nc2oc(=O)c(CCN3CCN(c4ccccc4OC)CC3)c(C)c2c1C | -0.6 |
| NS(=O)(=O)c1ccc(Nc2ccccc2)c([N+](=O)[O-])c1 | 0.85 |
| NC(=O)C1=C(N)c2ccccc2C1c1ccccc1 (stereo unspecified) | 1.15 |
| Nc1nc(SCc2ccccn2)c2ncn(C3OC(CO)C(O)C3O)c2n1 (stereo unspecified) | -1.8 |
| NNC(=O)CNC(=O)Nc1n[nH]c(=S)s1 | 0.3 |
| Nc1nc(=S)c2[nH]cnc2[nH]1 | -0.65 |
| O=C(Nc1ccc(C2=NCCN2)cc1)c1ccc(C(=O)Nc2ccc(C3=NCCN3)cc2)c(Cl)c1 | -1.25 |
| CCCCOC(=O)c1cccnc1 | 1.05 |
| O=C1CSC(=S)N1/N=C/c1c[nH]c2ccc(Br)cc12 | 0.25 |
| CCCCCOc1ccc(N2C(=O)C(C)CNC2=S)cc1 (stereo unspecified) | 1.1 |
